Results are given in words; binding and its absence hold for the method and conditions named. For part of these data: In cells and extracts the contact can be indirect. Some entries that bind do so weakly or less than the wild type.
Tests used:
HA-CUL4A = HA-CUL4A (UniProt Q13619); assay: co-IP; H1299 cells co-transfected with FLAG-ILF2 or FLAG-ILF2^R2/5/7/9K and HA-CUL4A; anti-HA immunoprecipitation, anti-HA or anti-FLAG immunoblotting
His-PRMT1 (human) = His-PRMT1 (human) (UniProt Q99873); assay: pull-down; His-PRMT1 incubated with GST-PRMT6; Ni-NTA pulldown, anti-PRMT6 or anti-PRMT1 immunoblotting; both purified
FLAG-CUL4A = FLAG-CUL4A (UniProt Q13619); assay: co-IP; H1299, PRMT1 KO or PRMT6 KO cells co-transfected with FLAG-CUL4A and HA-ILF2; anti-FLAG immunoprecipitation, anti-FLAG or anti-HA immunoblotting
FLAG-PRMT6 (human) [1] = biological target: FLAG-PRMT6 (human) (UniProt Q96LA8); assay: co-IP; anti-FLAG immunoprecipitation (anti-FLAG M2 affinity gel) of extracts of transfected H1299 cells in NP-40 lysis buffer (150 mM NaCl, 50 mM Tris-HCl pH 8, 1% NP-40), 4°C overnight; immunoblotting
GST-PRMT6 (human) [2] = biological target: GST-PRMT6 (human) (UniProt Q96LA8); assay: pull-down; GST fusion protein (or GST) incubated with cell extracts containing the HA-tagged protein in the presence of TAT (20 μM) or TAT-1/6i (20 μM); GST pulldown, anti-HA or anti-GST immunoblotting; only the target purified
GST-PRMT6 (human) [3] = biological target: GST-PRMT6 (human) (UniProt Q96LA8); assay: pull-down; GST or GST-PRMT6 incubated with His-PRMT1; GST pulldown, anti-PRMT1 or anti-GST immunoblotting; both purified
YFPn-FLAG-PRMT6 (human) = YFPn-FLAG-PRMT6 (human) (UniProt Q96LA8); assay: split reporter; BiFC: YFPn and YFPc fusions co-transfected in H1299 cells; YFP signal by fluorescence microscopy
YFPc-HA-PRMT6 (human) = YFPc-HA-PRMT6 (human) (UniProt Q96LA8); assay: as above
FLAG-PRMT1 (human) [4] = biological target: FLAG-PRMT1 (human) (UniProt Q99873); assay: co-IP; anti-FLAG immunoprecipitation (anti-FLAG M2 affinity gel) of extracts of transfected H1299 cells in NP-40 lysis buffer (150 mM NaCl, 50 mM Tris-HCl pH 8, 1% NP-40), 4°C overnight; immunoblotting
FLAG-PRMT6 (human) [5] = biological target: FLAG-PRMT6 (human) (UniProt Q96LA8); assay: co-IP; anti-FLAG immunoprecipitation of extracts of H1299 PRMT6 KO or PRMT1 KO cells expressing the FLAG-tagged bait; NP-40 lysis buffer; immunoblotting
FLAG-PRMT1 (human) [6] = biological target: FLAG-PRMT1 (human) (UniProt Q99873); assay: as above
FLAG-ILF2 (human) [7] = biological target: FLAG-ILF2 (human) (UniProt Q12905); assay: co-IP; anti-FLAG immunoprecipitation (anti-FLAG M2 affinity gel) of extracts of transfected H1299 cells in NP-40 lysis buffer (150 mM NaCl, 50 mM Tris-HCl pH 8, 1% NP-40), 4°C overnight; immunoblotting
[8] = biological target: endogenous PRMT6 (human (endogenous in H1299)) (UniProt Q96LA8); assay: co-IP; anti-PRMT6 immunoprecipitation of extracts of H1299 or PRMT1 KO cells; anti-PRMT1 or anti-PRMT6 immunoblotting; endogenous proteins
FLAG-ILF2 (human) [9] = biological target: FLAG-ILF2 (human) (UniProt Q12905); assay: co-IP; anti-FLAG immunoprecipitation of extracts of H1299 PRMT6 KO or PRMT1 KO cells expressing the FLAG-tagged bait; NP-40 lysis buffer; immunoblotting

The chains behind the UniProt entries cited, without tags or fusion partners. Where a name states a change or a piece, a line headed by the entry shows the natural chain unless it says otherwise. A line that says so, or that is headed by a name, gives the form on record, which may keep a tag or linker.
UniProt Q13619: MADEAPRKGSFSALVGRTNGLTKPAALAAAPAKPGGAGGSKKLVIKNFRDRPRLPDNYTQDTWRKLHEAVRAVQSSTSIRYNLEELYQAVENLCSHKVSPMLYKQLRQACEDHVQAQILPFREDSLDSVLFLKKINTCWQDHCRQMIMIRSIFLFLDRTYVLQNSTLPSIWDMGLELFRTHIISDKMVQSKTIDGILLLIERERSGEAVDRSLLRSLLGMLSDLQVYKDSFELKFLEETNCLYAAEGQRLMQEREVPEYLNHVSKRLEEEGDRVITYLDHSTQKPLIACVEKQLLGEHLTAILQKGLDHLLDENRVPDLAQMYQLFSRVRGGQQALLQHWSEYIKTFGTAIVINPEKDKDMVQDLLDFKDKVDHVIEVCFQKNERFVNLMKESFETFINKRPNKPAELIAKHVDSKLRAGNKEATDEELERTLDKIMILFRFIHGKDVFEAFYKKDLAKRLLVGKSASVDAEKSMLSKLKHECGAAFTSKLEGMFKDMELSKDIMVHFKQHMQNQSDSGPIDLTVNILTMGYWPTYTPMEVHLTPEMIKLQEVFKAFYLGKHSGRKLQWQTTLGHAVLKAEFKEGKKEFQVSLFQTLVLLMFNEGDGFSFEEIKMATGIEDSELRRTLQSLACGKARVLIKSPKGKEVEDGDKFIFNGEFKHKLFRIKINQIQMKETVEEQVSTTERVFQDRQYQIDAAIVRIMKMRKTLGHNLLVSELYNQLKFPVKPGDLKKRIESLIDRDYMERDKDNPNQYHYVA
UniProt Q99873: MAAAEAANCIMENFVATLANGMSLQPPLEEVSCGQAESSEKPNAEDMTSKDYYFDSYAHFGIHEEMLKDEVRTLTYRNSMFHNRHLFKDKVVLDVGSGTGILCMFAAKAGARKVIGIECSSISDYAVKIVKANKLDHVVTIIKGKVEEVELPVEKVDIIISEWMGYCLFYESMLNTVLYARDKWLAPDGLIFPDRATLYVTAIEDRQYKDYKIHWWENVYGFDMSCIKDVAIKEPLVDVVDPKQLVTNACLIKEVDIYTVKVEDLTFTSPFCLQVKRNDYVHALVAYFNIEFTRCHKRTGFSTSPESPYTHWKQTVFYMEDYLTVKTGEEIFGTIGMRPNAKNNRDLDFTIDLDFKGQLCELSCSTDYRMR
UniProt Q96LA8: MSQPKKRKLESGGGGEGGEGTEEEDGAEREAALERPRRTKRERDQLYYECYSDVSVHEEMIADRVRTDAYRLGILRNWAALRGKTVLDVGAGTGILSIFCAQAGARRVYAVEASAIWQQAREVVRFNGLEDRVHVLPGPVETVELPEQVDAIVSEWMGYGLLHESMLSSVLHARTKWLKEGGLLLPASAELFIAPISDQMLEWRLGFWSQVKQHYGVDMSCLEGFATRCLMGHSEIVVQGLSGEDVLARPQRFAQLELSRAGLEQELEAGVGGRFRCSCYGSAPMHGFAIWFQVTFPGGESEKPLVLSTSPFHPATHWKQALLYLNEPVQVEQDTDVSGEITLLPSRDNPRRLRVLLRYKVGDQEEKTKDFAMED
UniProt Q12905: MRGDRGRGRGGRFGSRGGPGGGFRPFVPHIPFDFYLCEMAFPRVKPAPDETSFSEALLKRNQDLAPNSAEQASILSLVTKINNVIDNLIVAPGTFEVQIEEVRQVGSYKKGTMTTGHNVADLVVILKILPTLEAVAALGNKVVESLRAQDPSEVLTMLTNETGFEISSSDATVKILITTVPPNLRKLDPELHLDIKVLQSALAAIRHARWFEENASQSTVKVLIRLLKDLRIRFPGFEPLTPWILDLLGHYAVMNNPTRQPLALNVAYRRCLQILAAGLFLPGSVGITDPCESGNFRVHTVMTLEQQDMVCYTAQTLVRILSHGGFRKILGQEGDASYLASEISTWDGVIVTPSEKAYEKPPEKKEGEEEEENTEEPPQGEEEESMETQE
FLAG-ILF2^R2/5/7/9K (Q12905, form named): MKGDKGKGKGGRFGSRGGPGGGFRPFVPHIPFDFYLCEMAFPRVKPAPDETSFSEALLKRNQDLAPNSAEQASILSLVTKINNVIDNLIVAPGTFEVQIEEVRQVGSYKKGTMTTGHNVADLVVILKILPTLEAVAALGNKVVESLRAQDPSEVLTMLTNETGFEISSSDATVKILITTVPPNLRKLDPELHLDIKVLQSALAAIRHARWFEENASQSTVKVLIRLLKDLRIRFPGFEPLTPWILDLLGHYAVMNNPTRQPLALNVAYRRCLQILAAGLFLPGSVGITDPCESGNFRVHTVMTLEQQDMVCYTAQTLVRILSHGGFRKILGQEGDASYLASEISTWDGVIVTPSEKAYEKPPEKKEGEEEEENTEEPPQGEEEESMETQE

With “FLAG-ILF2^R2/5/7/9K (from UniProt Q12905 1-390)” the binding (HA-CUL4A) was “binds”.

For “GST-PRMT6 (from UniProt Q96LA8 1-375) (enzyme)”, the binding (His-PRMT1 (human)) was “binds”.

With HA-ILF2 (from UniProt Q12905 1-390) the binding (FLAG-CUL4A) was “binds”.

In the case of “HA-PRMT1 (from UniProt Q99873 1-371) (enzyme)”, the binding (FLAG-PRMT6 (human) [1]) is reported as “binds”.

In the case of “HA-PRMT6 (from UniProt Q96LA8 1-375) (enzyme)”, the binding (GST-PRMT6 (human) [2]) is reported as “binds”.

In the case of “His-PRMT1 (from UniProt Q99873 1-371) (enzyme)”, the binding (GST-PRMT6 (human) [3]) is reported as “binds”.

With “YFPc-HA-PRMT1 (from UniProt Q99873 1-371) (enzyme)” the binding (YFPn-FLAG-PRMT6 (human)) was “binds”.

“YFPn-FLAG-PRMT6 (from UniProt Q96LA8 1-375) (enzyme)” was tested, and the binding (YFPc-HA-PRMT6 (human)) was “binds”.

“endogenous ILF2 (from UniProt Q12905 1-390)” was tested, and the binding (FLAG-PRMT6 (human) [1]) was “binds”, the binding (FLAG-PRMT1 (human) [4]) was “binds” and the binding (FLAG-PRMT6 (human) [5]) was “binds weakly”. The binding (FLAG-PRMT1 (human) [6]) was “binds weakly”.

For “endogenous PRMT1 (from UniProt Q99873 1-371) (enzyme)”, the binding (FLAG-PRMT6 (human) [1]) was “binds”, the binding (FLAG-ILF2 (human) [7]) was “binds” and the binding [8] was “binds”. For the same substance, the binding (FLAG-ILF2 (human) [9]) was “binds weakly”.

In the case of “endogenous PRMT6 (from UniProt Q96LA8 1-375) (enzyme)”, the binding (FLAG-ILF2 (human) [7]) is reported as “binds” and the binding (FLAG-ILF2 (human) [9]) is reported as “binds weakly”.

Reference: article PMC10830871
